The chains behind the UniProt entries cited, without tags or fusion partners. Where a name states a change or a piece, a line headed by the entry shows the natural chain unless it says otherwise.
UniProt P18054: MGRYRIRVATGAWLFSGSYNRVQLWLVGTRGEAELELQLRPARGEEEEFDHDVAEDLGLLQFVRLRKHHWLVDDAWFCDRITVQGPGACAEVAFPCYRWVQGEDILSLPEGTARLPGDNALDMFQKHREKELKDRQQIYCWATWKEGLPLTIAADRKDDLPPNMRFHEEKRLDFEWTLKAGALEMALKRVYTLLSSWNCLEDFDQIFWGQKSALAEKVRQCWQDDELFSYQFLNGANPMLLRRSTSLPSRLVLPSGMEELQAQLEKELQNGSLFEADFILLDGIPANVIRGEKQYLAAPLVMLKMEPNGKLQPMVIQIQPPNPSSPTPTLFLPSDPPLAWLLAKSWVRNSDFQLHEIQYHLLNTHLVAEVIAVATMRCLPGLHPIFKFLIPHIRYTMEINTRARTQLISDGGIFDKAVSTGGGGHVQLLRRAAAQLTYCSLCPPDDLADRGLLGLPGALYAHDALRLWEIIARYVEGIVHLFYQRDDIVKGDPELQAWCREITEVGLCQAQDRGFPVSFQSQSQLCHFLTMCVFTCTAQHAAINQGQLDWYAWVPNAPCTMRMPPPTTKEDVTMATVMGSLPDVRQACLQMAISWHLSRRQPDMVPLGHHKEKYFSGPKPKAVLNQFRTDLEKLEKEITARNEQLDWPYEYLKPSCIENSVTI

In all, about 580,000 compounds went through this assay and about 6,100 (1.1%) were called active. The shares of active, inactive and inconclusive entries below differ from those in the screen. Calls follow the shape of the dose curve; as a rule, active = well fitted inhibition curve with a large enough effect; inconclusive = small, poorly fitted or top-dose-only effect, or another doubt; inactive = no such curve, though single readings can be large or run the other way. A potency beside an inconclusive call is a rough fit, not a confirmed value.
What follows are compounds tested against Polyunsaturated fatty acid lipoxygenase ALOX12 (Homo sapiens) (UniProt P18054) (assay: Primary qHTS assay for inhibitors of human arachidonate 12S-lipoxygenase (ALOX12): Round 2). Conditions: purified 12hLO, xylenol orange hydroperoxide absorbance; activity change, negative = inhibition: at 108 µM (top of the series) unless noted.
How it was run: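 Purified human 12hLO (150 nM final) in 25 mM Hepes, 0.01% Triton X-100, pH 7.0 was preincubated 15 min at room temperature with compound. Then 40 uM arachidonic acid was added, 30 min. Hydroperoxide was read by Fe-XO absorbance ratio 573/405 nm.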
`N#C/C(=C\c1ccc(-c2ccc(Br)cc2)o1)c1nc2ccccc2[nH]1` was tested, and the Potency was inconclusive: 35.5 µM [inhibitor, partial curve].
`C=CCOc1ccc(/C(O)=C2/C(=O)C(=O)N(CCCN3CCOCC3)C2c2ccccc2)cc1` (stereo not drawn) was tested, and the “activity change, negative = inhibition” value was inactive: -11%.
`O=c1cc(C2CC(NC3CCC4(CCNCC4)CC3)C2)nc(C2CC2)[nH]1` (stereo not drawn) was tested, and the Potency was inconclusive: 14.1 µM [inhibitor, full curve, poor fit].
`CC(=O)c1ccccc1OC(=O)c1ccc([N+](=O)[O-])o1` was tested, and the Potency was inconclusive: 22.4 µM [inhibitor, partial curve, poor fit].
In the case of `COc1cccc(/C=C/C(=O)c2ccc(-c3ccccc3)cc2)c1`, the Potency is reported as inconclusive: 44.7 µM [inhibitor, partial curve, poor fit].
In the case of `CCCCn1c(N)c(N(CC)C(=O)c2cc(OC)cc(OC)c2)c(=O)[nH]c1=O`, the Potency is reported as inconclusive: 44.7 µM [inhibitor, partial curve, poor fit].
In the case of `O=C(Nc1ccc2c(c1)CCC2)c1cnn2c1NC(c1ccco1)CC2C(F)(F)F` (stereo not drawn), the “activity change, negative = inhibition” value is reported as inactive: 119%.
In the case of `Cc1ccc(S(=O)(=O)Cn2nnnc2C(C(C)C)N2CCN(C(=O)c3ccco3)CC2)cc1` (stereo not drawn), the Potency is reported as inconclusive: 3.55 µM [inhibitor, full curve, poor fit].
`COc1ccc(CN2CCN(C(C)=O)CC2)cc1OC1CCN(C(=O)c2ccc3ccccc3n2)CC1` was tested, and the Potency was active: 28.2 µM.
`CCOC(=O)c1sc(=S)n(-c2cc(F)ccc2F)c1N` was tested, and the Potency was inconclusive: 35.5 µM [inhibitor, partial curve].
With `CCOc1ccc(C(=O)Nc2ccc3oc(-c4ccncc4)nc3c2)cc1Br` the Potency was inconclusive: 14.1 µM [inhibitor, full curve, poor fit].
For `CCOc1ccc(-c2nonc2NC(=O)c2oc3cc(C)ccc3c2C)cc1OCC`, the “activity change, negative = inhibition” value was inactive: -8.86%.
In the case of `CCOCCSc1nnc(-c2nn(Cc3ccccc3)c(=O)c3ccccc23)o1`, the Potency is reported as active: 28.2 µM.
In the case of `Cc1ccc(-c2noc(-c3cc4ccccc4oc3=O)n2)cc1`, the Potency is reported as “inactive”.
`COc1ccc(CNC(=O)c2cccc(Oc3ccccc3)c2)cc1` was tested, and the Potency was inconclusive: 56.2 µM [inhibitor, single point].
For `CN1c2ccccc2C(C)(C)C12C=Cc1cc(O)ccc1O2` (stereo not drawn), the Potency was inconclusive: 28.2 µM [inhibitor, partial curve, poor fit].
With `O=C(CSc1n[nH]c(-c2cccc(Br)c2)n1)c1ccc(Cl)cc1` the Potency was inconclusive: 50.1 µM [inhibitor, partial curve, poor fit].
`CCn1c(CNC(=O)Cc2ccc(OC)cc2)nnc1SCC(=O)Nc1nccs1` was tested, and the Potency was inconclusive: 22.4 µM [inhibitor, partial curve, poor fit].
`CCC(C=C[C@@H]1OC(=O)C=C[C@H]1C)=C[C@H](C)CC=CC(C)=C[C@@H](C)C(=O)[C@@H](C)[C@H](O)[C@@H](C)CC(C)=CC(=O)O` was tested, and the Potency was inconclusive: 2.28 µM [inhibitor, single point].
For `O=C1NCc2ccccc2CC12CCN(Cc1ccccc1Cl)C2` (stereo not drawn), the Potency was inconclusive: 50.1 µM [inhibitor, full curve].
`CC(C)c1ccc(Nc2ccc3cc(S(=O)(=O)N4CCCC4)ccc3n2)cc1` was tested, and the Potency was inconclusive: 44.7 µM [inhibitor, partial curve].
In the case of `O=C1NCCOCCCN(C(=O)c2ccco2)[C@H]2CCCC[C@@H]12`, the Potency is reported as inconclusive: 28.2 µM [inhibitor, full curve].
With `COc1ccc(N2Cc3cccc(C(=O)Nc4ccc(Cl)cc4)c3C2=O)cc1` the Potency was inconclusive: 79.4 µM [inhibitor, partial curve, poor fit].
For `NC(=S)NNC(=S)Nc1ccccc1`, the Potency was inconclusive: 6.31 µM [inhibitor, full curve, poor fit].
In the case of `CSc1nnc(Cn2c(=O)sc3ccccc32)n1CCc1ccccc1`, the “activity change, negative = inhibition” value is reported as inactive: 53.7%.
With `Cc1c(C(=O)N2CCCC2)c(S(=O)(=O)NCCc2ccc(Cl)cc2)c(C)n1C` the Potency was inconclusive: 89.1 µM [inhibitor, partial curve, poor fit].
For `Fc1ccc(N=C2NN=C(c3cc(F)ccc3F)CS2)cc1`, the Potency was inconclusive: 44.7 µM [inhibitor, partial curve, poor fit].
With `CC(C)(Oc1nn(Cc2cccc(Cl)c2)c2ccccc12)C(=O)N1CCCC1` the Potency was inconclusive: 50.1 µM [inhibitor, partial curve].
In the case of `CCCCCCCCC/C(=N\O)c1ccccn1`, the “activity change, negative = inhibition” value is reported as inactive: 0%.
For `Cc1ccc2oc(-c3ccc(NC(=O)c4ccccc4F)cc3)nc2c1`, the “activity change, negative = inhibition” value was inactive: -2%.
With `CC1(C)CC(=O)C(C(C2=C(O)CC(C)(C)CC2=O)c2ccco2)C(=O)C1` (stereo not drawn) the Potency was inconclusive: 44.7 µM [inhibitor, partial curve, poor fit].
With `Cn1cnc([N+](=O)[O-])c1S(=O)(=O)Oc1ccc(Cl)cc1` the “activity change, negative = inhibition” value was inactive: 1.13%.
`CN(C)CCNc1oc(-c2ccccc2F)nc1C#N` was tested, and the Potency was inconclusive: 56.2 µM [inhibitor, partial curve, poor fit].
With `O=C(CCCN1C(=O)S/C(=C\C=C\c2ccccc2)C1=O)Nc1ccc(C(=O)O)cc1` the Potency was inconclusive: 50.1 µM [inhibitor, partial curve, poor fit].
For `CC(NCC(=O)NC(=O)NCCC1=CCCCC1)c1ccc(S(N)(=O)=O)cc1` (stereo not drawn), the Potency was inconclusive: 50.1 µM [inhibitor, partial curve, poor fit].
`O=C(Nc1ncccc1O)c1cc2ccccc2o1` was tested, and the Potency was inconclusive: 0.282 µM [inhibitor, full curve, poor fit].
With `Cc1ccc(CN(Cc2ccco2)C(=O)COc2cccc(C)c2C)o1` the “activity change, negative = inhibition” value was inactive: 0%.
In the case of `CC(=O)OC1=CSc2cccc3cccc1c23`, the Potency is reported as active: 39.8 µM.
For `Cc1ccc(C(C)C)c(OCC(=O)Nc2ccc3oc(-c4ccncc4)nc3c2)c1`, the Potency was inconclusive: 141 µM [inhibitor, single point].
With `CCc1c(C)nc2[nH]nc(-c3ccccc3C)n2c1=O` the “activity change, negative = inhibition” value was inactive: 11.2%.
For `COC(=O)c1ccc(OCC(=O)c2ccc3c(c2)OCO3)c(OC)c1`, the “activity change, negative = inhibition” value was inactive: -105%.
For `O=C(N/N=C(\Cc1ncc[nH]1)c1ccccc1)c1cccnc1`, the “activity change, negative = inhibition” value was inactive: 3.99%.
With `O=C(/C=C/c1cccs1)Nc1sc2c(c1C(=O)O)CCCC2` the Potency was inconclusive: 44.7 µM [inhibitor, partial curve, poor fit].
% is scaled to controls: 0 for no effect and ±100 for the full control effect; potency is read from the fitted curve at half-maximal effect.
